Several values for one entry are separate records, joined by “and”; a condition that tells them apart may be missing. Equal entries are not always repeated. In all, about 350,000 compounds went through this assay and about 1,200 (0.34%) were called active. The inconclusive results got no clear call from the source; some entries with a clear call stand among them for comparison. Calls follow the shape of the dose curve; as a rule, active = well fitted inhibition curve with a large enough effect; inconclusive = small, poorly fitted or top-dose-only effect; inactive = no such curve, though single readings can be large or run the other way. A potency beside an inconclusive call is a rough fit, not a confirmed value.
Target: DNA repair nuclease/redox regulator APEX1 (Homo sapiens) (UniProt P27695)
Experiment: qHTS Assay for Inhibitors of the Human Apurinic/apyrimidinic Endonuclease 1 (APE1); also: nearly all actives have a fitted effect of over 55% in size;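 as to activity change, negative = inhibition: plate controls were vehicle for no effect and reference inhibitor for full effect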
Settings: recombinant APE1, TAMRA/BHQ-2 abasic DNA cleavage fluorescence; activity change, negative = inhibition: at 65.8 µM (top of the series)
Summary of the method: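 APE1 at 0.75 nM preincubated 15 min at room temperature with compound. Reaction then started with 50 nM double-stranded THF-abasic substrate labelled with TAMRA/BHQ-2, and 525/598 nm fluorescence read kinetically. Activity taken as third-minus-first read difference, normalized to DMSO and NSC13755 controls.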
Potency is read from the fitted curve at half-maximal effect.

Chains of the proteins cited; added tags and fusions are not shown.
UniProt P27695, whole entry, looked up: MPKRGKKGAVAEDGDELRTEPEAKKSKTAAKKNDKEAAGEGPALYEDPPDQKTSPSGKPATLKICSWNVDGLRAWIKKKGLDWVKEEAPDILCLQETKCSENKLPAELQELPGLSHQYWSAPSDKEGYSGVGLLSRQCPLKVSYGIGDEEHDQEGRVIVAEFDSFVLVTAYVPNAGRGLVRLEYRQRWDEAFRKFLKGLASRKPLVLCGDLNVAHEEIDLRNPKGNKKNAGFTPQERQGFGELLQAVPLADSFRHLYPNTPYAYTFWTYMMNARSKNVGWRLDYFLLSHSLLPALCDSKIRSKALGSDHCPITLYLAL

| SMILES | Potency | activity change, negative = inhibition |
| --- | --- | --- |
| CC(C)C(=O)c1c(C(C)C)nn2ccccc12 | inconclusive: 562 nM [inhibitor, full curve, poor fit] and inconclusive: 44.7 µM [inhibitor, single point] | – |
| C=C(C)CCOC(=O)C(CC(=O)O)NCc1ccco1 (stereo unspecified) | inconclusive: 10 µM [inhibitor, partial curve] | – |
| COc1cc(NC(=O)c2nnn(Cc3ccc(SC)cc3)c2N)cc(OC)c1 | inconclusive: 44.7 µM [inhibitor, single point] | – |
| CCN(c1ccc(NS(=O)(=O)c2cc(Cl)ccc2Cl)cc1)C(C)C | inconclusive: 20 µM [inhibitor, single point] | – |
| NC1=C(c2ccc([N+](=O)[O-])cc2)C(=O)CO1 | inactive | – |
| O=C(CSc1nnc(-c2cccnc2)n1-c1ccc(SC(F)F)cc1)N1CCCc2ccccc21 | inconclusive: 12.6 µM [inhibitor, partial curve] | – |
| COc1cc(CNc2ccc(N3CCCC3)cc2)ccc1OCc1ccccc1 | inactive | – |
| COc1cc(C(=S)N2CCCCC2)ccc1OCC(=O)Nc1ccccc1Cl | inconclusive: 44.7 µM [inhibitor, single point] | – |
| Cn1c2cc(B(O)O)sc2c2cnn(Cc3ccccc3F)c(=O)c21 | inconclusive: 26.7 µM [inhibitor, single point] | – |
| C=CCN1C(=O)C(O)(CC(=O)c2ccco2)c2cc(Br)ccc21 (stereo unspecified) | inconclusive: 3.16 µM [inhibitor, single point] | – |
| CCC[C@H](NC(=O)[C@H](Cc1ccc(O[S+](=O)([O-])O)cc1)NC(=O)OC(C)(C)C)C(=O)NCC(=O)N[C@@H](Cc1c[nH]c2ccccc12)C(=O)N[C@@H](CCC)C(=O)N[C@@H](CC(=O)OCCc1ccccc1)C(=O)O | inactive | – |
| Cc1ccc(NC(=O)c2ccc3c(c2)C(=O)N(c2ccccc2C)C3=O)nc1 | inactive | – |
| O=c1c2ccccc2c(-c2cccc(C(F)(F)F)c2)nn1-c1ccccc1 | inactive | – |
| Cc1ccccc1C(=O)N(Cc1nc2ccccc2c(=O)[nH]1)C1CCCC1 | inconclusive: 39.8 µM [inhibitor, single point] | – |
| COc1c(Cl)cc(-c2noc(C)c2C(=O)NC(C)C)cc1Cl | inconclusive: 3.16 µM [inhibitor, single point] | – |
| COC(=O)COc1ccc(C2Nc3c(Cl)ccc(C(=O)O)c3C3C=CCC32)cc1 (stereo unspecified) | inconclusive: 44.7 µM [inhibitor, single point] | – |
| CCOc1ccc(NC(=O)c2nccnc2CO)cc1 | inconclusive: 126 µM [inhibitor, partial curve, poor fit] | – |
| Cc1ccc(CNC(=O)c2ccc(-n3cccc3)cc2)cc1 | inconclusive: 11.2 µM [inhibitor, partial curve] | – |
| COc1ccc(Cl)cc1NC(=O)CN(C)CC(=O)Nc1ccccc1-c1ccccc1 | inconclusive: 0.0708 µM [inhibitor, full curve, poor fit] | – |
| O=C(NCN1C(=O)C2C3C=CC(C3)C2C1=O)Nc1ccccc1O (stereo unspecified) | inconclusive: 31.6 µM [inhibitor, single point] | – |
| C1CN(CC23CC4CC(CC(C4)C2)C3)CCO1 | inactive | – |
| CCN(CC)S(=O)(=O)c1cccc(NC2=NCCCCC2)c1 | inconclusive: 6.31 µM [inhibitor, single point] | – |

Exported as labelled records: three of the compounds above.
CCN(c1ccc(NS(=O)(=O)c2cc(Cl)ccc2Cl)cc1)C(C)C
  Potency: inconclusive: 20 µM [inhibitor, single point]
C=CCN1C(=O)C(O)(CC(=O)c2ccco2)c2cc(Br)ccc21 (stereo unspecified)
  Potency: inconclusive: 3.16 µM [inhibitor, single point]
C1CN(CC23CC4CC(CC(C4)C2)C3)CCO1
  Potency: inactive

Going on with the list.

| SMILES | Potency | activity change, negative = inhibition |
| --- | --- | --- |
| COc1ccc(C(=O)O)cc1NC(=S)NC(=O)c1ccc(-c2ccc(Cl)cc2)o1 | inactive | – |
| CC(C)(C)OC(=O)C[C@@H]1C/C=C\C[C@H](CC(=O)N[C@H](CO)Cc2ccccc2)C(=O)N2CCC[C@H]2COC1=O | inactive | – |
| CCN1CCN(C(=S)c2ccc(Cl)cc2)CC1 | inactive | – |
| CCC1CC=CC2C1C(=O)N(Cc1ccccc1)C2c1cc(C)ccc1F (stereo unspecified) | inconclusive: 12.6 µM [inhibitor, partial curve, poor fit] | – |
| N#C/C(=C/c1ccc(OCc2ccc(C(=O)O)cc2)c(Br)c1)c1cccc(F)c1 | inconclusive: 25.1 µM [inhibitor, partial curve, poor fit] | – |
| Cc1cc(OCC(=O)NCCN2CCOCC2)c2c(C)c(C)c(=O)oc2c1 | inactive | – |
| CCSc1cc(N2CCCC2)nc(-c2ccc(C)cc2)n1 | inconclusive: 3.16 µM [inhibitor, partial curve] | – |
| Cc1cc(C=O)c(C)n1-c1ccc(Cl)c(C(=O)O)c1 | active: 5.62 µM | – |
| NCCCC[C@H](NC(=O)[C@H](CS)NC(=O)[C@@H](N)Cc1cnc[nH]1)C(=O)N[C@@H](Cc1ccccc1)C(=O)N[C@@H](Cc1c[nH]c2ccccc12)C(=O)N[C@@H](Cc1c[nH]c2ccccc12)C(=O)O | inactive | – |
| COc1cc(/C=C(/C#N)c2nc3ccccc3[nH]2)ccc1OC(=O)c1ccco1 | inconclusive: 22.4 µM [inhibitor, single point] | – |
| CCOC(=O)c1c(NC(=O)CC2Nc3ccccc3NC2=O)sc(C)c1C (stereo unspecified) | inactive | – |
| CCOn1c(=O)c(-c2ccc(Br)cc2)[n+]([O-])c2ccccc21 | inconclusive: 8.44 µM [inhibitor, single point] | – |
| COc1cc2c(cc1NC(=O)COC(=O)CNS(=O)(=O)c1ccc(C)cc1)oc1ccccc12 | inconclusive: 15.8 µM [inhibitor, partial curve] | – |
| O=C(CSc1nnc(COc2ccccc2F)n1-c1ccccc1)NC1CCS(=O)(=O)C1 (stereo unspecified) | inconclusive: 20 µM [inhibitor, single point] | – |
| CC(Nc1cc(N2CCNCC2)ccc1[N+](=O)[O-])c1ccccc1 (stereo unspecified) | inconclusive: 0.0631 µM [inhibitor, full curve, poor fit] | – |
| Cc1ccc(C2CC(c3ccc(NS(C)(=O)=O)cc3)=NN2C(=O)c2ccco2)cc1 (stereo unspecified) | inconclusive: 20 µM [inhibitor, single point] | – |
| COCCc1nc2ccc(C(=O)N(C)Cc3cccc(-n4cccn4)c3)cc2o1 | inconclusive: 8.44 µM [inhibitor, single point] | – |
| N#Cc1c(-c2cccs2)nc(SCC(=O)c2ccc(Br)cc2)[nH]c1=O | active: 39.8 µM | – |
| Cc1cc(C)nc(N/C(=N\S(=O)(=O)Cc2ccccc2)Nc2ccccc2Br)n1 | inconclusive: 20 µM [inhibitor, single point] | – |
| COCCNC(=O)c1c[nH]c2ccc(S(=O)(=O)N3CCc4ccccc43)cc2c1=O | inconclusive: 6.31 µM [inhibitor, partial curve, poor fit] | – |
| COC(=O)C1=CC(C(=O)c2cccs2)=NN(c2ccc(OC)cc2)C1C(=O)OC (stereo unspecified) | inactive | – |
| C=C(C(C)=O)C(O)c1ccco1 (stereo unspecified) | inactive | – |

| SMILES | Potency | activity change, negative = inhibition |
| --- | --- | --- |
| Cc1cc2c3c(cccc3n1)C(=O)c1ccccc1-2 | inconclusive: 0.126 µM [inhibitor, full curve] | – |
| CC(/C=C1\SC(=S)N(CCC(=O)Nc2ccc(O)cc2)C1=O)=C\c1ccccc1 | inactive | – |
| CCOC(=O)Cn1nc(C)n(-c2ccc(F)cc2)c1=O | inconclusive: 0.0089 µM [inhibitor, full curve] | – |
| CCCCc1nc2c(c3c1C[C@H](C)OC3)CN(C(=O)N[C@@H](C)c1ccccc1)CC2 | – | inactive: -3.38% [at 12.4 µM] |
| CCCOc1ccc(C(=O)c2nc3c(n2O)CCCC3)cc1 | inactive | – |
| O=C(Nc1ccc(Br)cc1C(=O)O)c1ccc2c(c1)C(=O)N(Cc1ccccc1)C2=O | inactive | – |
| COc1ccc2c(c1)c(=O)oc1c(C)c(OCc3ccc(C(=O)O)cc3)ccc12 | inconclusive: 33.6 µM [inhibitor, single point] | – |
| COc1cc(/C=N/NC(=O)c2ccc(CSc3nc4ccccc4[nH]3)cc2)ccc1O | inconclusive: 44.7 µM [inhibitor, single point] | – |
| CCOC(=O)c1ccc(-n2c(CN3CCC(C(N)=O)CC3)nc3ccc([N+](=O)[O-])cc3c2=O)cc1 | inconclusive: 0.0089 µM [inhibitor, full curve, poor fit] | – |
| O=C(O)Cc1ccc(NC(=O)c2ccc3c(c2)C(=O)N(Cc2ccco2)C3=O)cc1 | inactive | – |
| COCCNC(=O)/C(C#N)=C/c1ccccc1Br | inactive | – |
| CCCCS(=O)(=O)N1CCc2nc(-c3ccc(OC)cc3C)c3c(c2C1)CO[C@@H](c1ccccc1)C3 | – | inactive: -5.67% [at 12.4 µM] |
| CCOc1cccc(=O)c2c(C)n(-c3ccc(C(=O)O)cc3)c(C)c12 | inconclusive: 25.1 µM [inhibitor, single point] | – |
| COc1ccc(N2CCN(C(=O)CCCCCn3c(=O)[nH]c4ccsc4c3=O)CC2)cc1 | inconclusive: 0.0794 µM [inhibitor, full curve, poor fit] | – |
| CCNc1ncc2nc(C)c(=O)n(C)c2n1 | inactive | – |
| O=S(=O)(c1cc(O)ccc1O)c1cccc2c(S(=O)(=O)c3cc(O)ccc3O)cccc12 | active: 2.12 µM | – |
| O=c1c(-c2ccc([N+](=O)[O-])cc2)coc2c(O)c(O)ccc12 | inconclusive: 6.31 µM [inhibitor, partial curve] | – |
| COc1ccc(C2CC(=O)c3cnn(-c4nc(C)cc(C)n4)c3C2)cc1 (stereo unspecified) | inconclusive: 0.0079 µM [inhibitor, full curve, poor fit] | – |
| COC(=O)c1cc2occc2n1Cc1nc(-c2ccccc2C)oc1C | inconclusive: 3.55 µM [inhibitor, partial curve, poor fit] | – |
| Cc1ccc2nc(-c3ccc(N)cc3)sc2c1S(=O)(=O)O | inconclusive: 35.5 µM [inhibitor, partial curve] | – |
| O=C(Nc1ccc(O)cc1C(=O)O)c1ccc2c(c1)C(=O)N(Cc1ccco1)C2=O | inconclusive: 39.8 µM [inhibitor, partial curve] | – |
| CC1(C)Cc2ccccc2-c2nc(NCCCO)n(-c3ccccc3)c(=O)c21 | inconclusive: 44.7 µM [inhibitor, single point] | – |

Part of the list above in order of molar mass, largest number first.

| SMILES | Potency | activity change, negative = inhibition |
| --- | --- | --- |
| O=C(O)Cc1ccc(NC(=O)c2ccc3c(c2)C(=O)N(Cc2ccco2)C3=O)cc1 | inactive | – |
| COc1ccc2c(c1)c(=O)oc1c(C)c(OCc3ccc(C(=O)O)cc3)ccc12 | inconclusive: 33.6 µM [inhibitor, single point] | – |
| O=c1c(-c2ccc([N+](=O)[O-])cc2)coc2c(O)c(O)ccc12 | inconclusive: 6.31 µM [inhibitor, partial curve] | – |
